The supplement of paper PMC12819154, “High-throughput peptide-centric local stability assay extends protein–ligand identification to membrane proteins, tissues and bacteria” (Nature Structural & Molecular Biology, 2025)
Some of the results follow. Small differences around the control level are noise.

Amino acid sequences for entries named in this document (tags omitted). A change or cut given only in a name is not applied to a line headed by its entry.
UniProt Q9H115: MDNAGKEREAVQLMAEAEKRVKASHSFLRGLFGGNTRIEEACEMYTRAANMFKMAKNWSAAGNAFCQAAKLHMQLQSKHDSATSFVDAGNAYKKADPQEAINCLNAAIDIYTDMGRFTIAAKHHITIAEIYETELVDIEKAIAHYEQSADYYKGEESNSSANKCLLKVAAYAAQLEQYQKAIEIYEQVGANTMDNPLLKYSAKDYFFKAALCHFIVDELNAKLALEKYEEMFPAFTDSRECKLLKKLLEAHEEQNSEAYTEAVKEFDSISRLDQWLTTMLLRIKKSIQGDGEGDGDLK
UniProt Q9C0B5: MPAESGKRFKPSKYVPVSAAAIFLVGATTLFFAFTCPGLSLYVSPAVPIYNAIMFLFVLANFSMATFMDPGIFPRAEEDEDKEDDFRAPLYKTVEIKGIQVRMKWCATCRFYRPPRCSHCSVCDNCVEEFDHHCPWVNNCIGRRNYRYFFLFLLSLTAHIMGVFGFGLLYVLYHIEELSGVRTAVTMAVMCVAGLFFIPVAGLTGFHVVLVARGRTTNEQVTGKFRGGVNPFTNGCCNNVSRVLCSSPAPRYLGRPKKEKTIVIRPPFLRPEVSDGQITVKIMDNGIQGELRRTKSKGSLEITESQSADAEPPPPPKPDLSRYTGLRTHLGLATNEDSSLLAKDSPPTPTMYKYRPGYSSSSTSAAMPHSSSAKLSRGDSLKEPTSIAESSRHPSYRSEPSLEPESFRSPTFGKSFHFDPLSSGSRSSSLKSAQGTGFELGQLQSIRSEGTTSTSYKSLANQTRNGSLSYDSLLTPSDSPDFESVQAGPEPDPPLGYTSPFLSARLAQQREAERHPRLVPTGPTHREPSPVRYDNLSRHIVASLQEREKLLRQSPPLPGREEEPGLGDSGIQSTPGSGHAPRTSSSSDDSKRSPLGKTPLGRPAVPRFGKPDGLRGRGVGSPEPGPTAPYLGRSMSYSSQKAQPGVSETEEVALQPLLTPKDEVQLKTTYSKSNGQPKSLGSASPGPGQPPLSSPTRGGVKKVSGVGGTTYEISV
UniProt Q9C004: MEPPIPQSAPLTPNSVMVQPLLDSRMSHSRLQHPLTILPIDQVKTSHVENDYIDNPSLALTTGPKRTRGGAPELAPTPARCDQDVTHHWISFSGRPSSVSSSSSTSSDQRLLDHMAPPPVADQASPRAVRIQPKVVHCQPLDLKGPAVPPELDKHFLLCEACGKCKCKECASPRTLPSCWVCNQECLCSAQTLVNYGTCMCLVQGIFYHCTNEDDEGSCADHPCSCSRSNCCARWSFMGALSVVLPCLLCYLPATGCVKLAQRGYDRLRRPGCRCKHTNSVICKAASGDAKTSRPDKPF
UniProt Q9GZV4: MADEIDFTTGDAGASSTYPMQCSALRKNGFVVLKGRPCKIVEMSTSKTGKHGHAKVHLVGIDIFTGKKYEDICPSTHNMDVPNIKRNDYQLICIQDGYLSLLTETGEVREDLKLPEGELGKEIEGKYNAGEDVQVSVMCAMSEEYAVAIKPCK
UniProt Q9H1H9: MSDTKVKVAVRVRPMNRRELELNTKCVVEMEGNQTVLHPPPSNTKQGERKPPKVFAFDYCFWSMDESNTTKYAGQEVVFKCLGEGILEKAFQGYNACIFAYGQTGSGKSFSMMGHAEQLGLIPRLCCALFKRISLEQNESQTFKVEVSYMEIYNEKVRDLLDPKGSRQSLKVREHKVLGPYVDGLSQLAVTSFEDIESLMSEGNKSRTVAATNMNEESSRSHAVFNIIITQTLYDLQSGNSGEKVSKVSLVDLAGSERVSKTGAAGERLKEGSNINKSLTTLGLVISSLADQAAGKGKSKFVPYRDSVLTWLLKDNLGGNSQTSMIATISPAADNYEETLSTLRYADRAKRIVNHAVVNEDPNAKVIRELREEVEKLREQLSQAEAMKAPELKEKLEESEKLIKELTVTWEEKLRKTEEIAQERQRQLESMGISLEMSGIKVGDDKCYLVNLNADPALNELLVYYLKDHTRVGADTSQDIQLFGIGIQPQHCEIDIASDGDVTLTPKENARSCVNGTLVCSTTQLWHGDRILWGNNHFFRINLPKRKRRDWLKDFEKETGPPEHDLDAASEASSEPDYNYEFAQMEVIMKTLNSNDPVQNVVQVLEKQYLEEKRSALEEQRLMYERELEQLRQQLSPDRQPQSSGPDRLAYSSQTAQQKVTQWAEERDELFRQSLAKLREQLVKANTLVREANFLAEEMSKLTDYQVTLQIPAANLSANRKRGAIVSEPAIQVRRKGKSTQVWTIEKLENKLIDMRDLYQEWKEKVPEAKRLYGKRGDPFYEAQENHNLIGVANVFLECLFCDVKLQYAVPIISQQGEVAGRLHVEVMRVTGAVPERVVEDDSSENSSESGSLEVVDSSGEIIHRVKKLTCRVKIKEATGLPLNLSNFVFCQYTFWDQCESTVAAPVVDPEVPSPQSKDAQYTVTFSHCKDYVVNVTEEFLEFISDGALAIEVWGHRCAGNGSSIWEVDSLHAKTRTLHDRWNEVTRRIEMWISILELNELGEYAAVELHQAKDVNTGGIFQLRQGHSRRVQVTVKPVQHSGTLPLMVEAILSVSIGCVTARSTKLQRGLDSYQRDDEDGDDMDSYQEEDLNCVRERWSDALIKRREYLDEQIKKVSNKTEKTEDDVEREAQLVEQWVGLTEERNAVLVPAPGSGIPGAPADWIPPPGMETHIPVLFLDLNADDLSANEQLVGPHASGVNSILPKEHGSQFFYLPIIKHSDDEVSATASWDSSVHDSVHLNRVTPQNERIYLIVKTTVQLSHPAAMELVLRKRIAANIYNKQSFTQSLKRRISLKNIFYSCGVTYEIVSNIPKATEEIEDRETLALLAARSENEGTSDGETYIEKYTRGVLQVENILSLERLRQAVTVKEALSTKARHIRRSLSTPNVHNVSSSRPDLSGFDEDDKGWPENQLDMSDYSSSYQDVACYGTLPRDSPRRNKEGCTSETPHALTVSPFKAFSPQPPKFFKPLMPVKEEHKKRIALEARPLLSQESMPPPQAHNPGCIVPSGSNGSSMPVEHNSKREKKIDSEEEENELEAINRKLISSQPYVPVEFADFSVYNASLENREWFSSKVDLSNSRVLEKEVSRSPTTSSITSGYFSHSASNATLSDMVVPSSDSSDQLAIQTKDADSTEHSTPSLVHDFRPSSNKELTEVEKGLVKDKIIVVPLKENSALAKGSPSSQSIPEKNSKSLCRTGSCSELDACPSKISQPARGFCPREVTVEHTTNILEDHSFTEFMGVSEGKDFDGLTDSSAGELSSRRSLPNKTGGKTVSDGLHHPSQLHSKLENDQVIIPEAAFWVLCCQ
UniProt Q9BVW5: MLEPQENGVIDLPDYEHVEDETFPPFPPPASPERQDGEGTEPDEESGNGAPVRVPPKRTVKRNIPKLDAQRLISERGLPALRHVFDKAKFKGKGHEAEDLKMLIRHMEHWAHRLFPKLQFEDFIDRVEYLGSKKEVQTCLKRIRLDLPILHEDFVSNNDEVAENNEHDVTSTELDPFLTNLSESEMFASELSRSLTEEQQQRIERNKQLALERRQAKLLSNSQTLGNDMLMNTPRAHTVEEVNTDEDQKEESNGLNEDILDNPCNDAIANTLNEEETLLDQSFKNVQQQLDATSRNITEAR
UniProt Q9H0R8, whole entry, looked up: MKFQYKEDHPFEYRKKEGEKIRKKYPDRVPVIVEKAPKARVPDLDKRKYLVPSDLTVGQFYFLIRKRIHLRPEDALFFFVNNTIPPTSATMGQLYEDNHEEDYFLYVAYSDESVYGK
UniProt Q9H0K6: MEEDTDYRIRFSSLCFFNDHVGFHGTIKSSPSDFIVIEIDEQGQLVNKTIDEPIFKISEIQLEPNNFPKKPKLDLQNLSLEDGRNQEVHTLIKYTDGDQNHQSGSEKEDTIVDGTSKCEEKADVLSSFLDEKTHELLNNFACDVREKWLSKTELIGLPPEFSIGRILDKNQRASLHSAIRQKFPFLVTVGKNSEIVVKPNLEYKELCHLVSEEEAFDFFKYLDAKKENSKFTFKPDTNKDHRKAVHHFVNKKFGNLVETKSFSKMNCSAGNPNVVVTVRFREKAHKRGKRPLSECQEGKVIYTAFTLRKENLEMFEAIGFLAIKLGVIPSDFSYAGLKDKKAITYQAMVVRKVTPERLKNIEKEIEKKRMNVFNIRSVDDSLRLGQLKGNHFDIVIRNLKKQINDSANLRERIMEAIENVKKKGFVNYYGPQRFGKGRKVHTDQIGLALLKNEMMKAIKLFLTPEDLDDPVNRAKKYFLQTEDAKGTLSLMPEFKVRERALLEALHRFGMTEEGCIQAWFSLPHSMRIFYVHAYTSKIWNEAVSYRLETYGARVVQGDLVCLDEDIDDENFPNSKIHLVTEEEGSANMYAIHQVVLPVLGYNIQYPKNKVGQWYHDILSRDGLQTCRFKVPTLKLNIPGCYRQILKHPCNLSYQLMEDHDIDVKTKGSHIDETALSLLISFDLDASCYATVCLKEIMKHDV

compound: Cc1nc(Nc2ncc(C(=O)Nc3c(C)cccc3Cl)s2)cc(N2CCN(CCO)CC2)n1 [dasatinib]; experiment: log2 fold change of tryptic peptide abundance, ligand vs vehicle (limited proteolysis) (log2 ratio); higher = more trypsin-susceptible (destabilized); conditions: ligand concentration: 5 uM; sample: K562 cleared lysate

Target	log2 fold change
UniProt Q9H115 (peptide sequence: YSAKDYFFK, peptide start residue: 200)	-0.897
ZDHHC5 (peptide sequence: SEPSLEPESFR, peptide start residue: 398) (UniProt Q9C0B5)	-0.249
SPRY4 (peptide sequence: LQHPLTILPIDQVK, peptide start residue: 31) (UniProt Q9C004)	0.059
EIF5A2 (peptide sequence: KYEDICPSTHNMDVPNIKR, peptide start residue: 68) (UniProt Q9GZV4)	0.0676
KIF13A (peptide sequence: VTQWAEER, peptide start residue: 660) (UniProt Q9H1H9)	0.633
TIPIN (peptide sequence: SLTEEQQQR, peptide start residue: 194) (UniProt Q9BVW5)	0.124
UniProt Q9H0R8 (peptide sequence: KYPDRVPVIVEK, peptide start residue: 24)	-0.16
PUS7L (peptide sequence: KAVHHFVNKK, peptide start residue: 243) (UniProt Q9H0K6)	0.607
